# Source: publication PMC7862700
# Chains of the proteins cited; added tags and fusions are not shown. Lines headed by an entry give the natural chain unless they say otherwise; changes in a name come on top.
# UniProt P41161: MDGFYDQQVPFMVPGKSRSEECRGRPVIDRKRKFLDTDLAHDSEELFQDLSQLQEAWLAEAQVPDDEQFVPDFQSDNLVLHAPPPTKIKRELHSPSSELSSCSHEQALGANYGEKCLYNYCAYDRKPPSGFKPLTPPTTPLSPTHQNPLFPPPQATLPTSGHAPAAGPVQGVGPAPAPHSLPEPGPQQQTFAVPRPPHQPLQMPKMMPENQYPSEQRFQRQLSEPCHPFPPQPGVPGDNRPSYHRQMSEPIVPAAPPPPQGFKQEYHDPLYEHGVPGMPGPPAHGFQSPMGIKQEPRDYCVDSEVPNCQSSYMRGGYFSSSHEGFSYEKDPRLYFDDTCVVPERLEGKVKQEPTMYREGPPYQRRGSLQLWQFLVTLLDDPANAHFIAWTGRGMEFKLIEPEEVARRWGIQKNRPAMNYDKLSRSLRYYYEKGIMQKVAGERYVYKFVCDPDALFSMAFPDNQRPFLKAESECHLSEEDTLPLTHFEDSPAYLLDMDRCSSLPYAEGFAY
# UniProt Q01892: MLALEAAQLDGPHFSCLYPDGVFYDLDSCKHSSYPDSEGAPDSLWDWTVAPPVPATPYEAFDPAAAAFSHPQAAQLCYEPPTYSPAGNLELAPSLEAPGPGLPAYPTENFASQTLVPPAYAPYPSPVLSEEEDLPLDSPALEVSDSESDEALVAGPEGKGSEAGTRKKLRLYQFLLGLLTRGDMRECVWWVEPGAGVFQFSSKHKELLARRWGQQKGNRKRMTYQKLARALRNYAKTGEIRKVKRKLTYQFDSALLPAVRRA
# UniProt Q99607: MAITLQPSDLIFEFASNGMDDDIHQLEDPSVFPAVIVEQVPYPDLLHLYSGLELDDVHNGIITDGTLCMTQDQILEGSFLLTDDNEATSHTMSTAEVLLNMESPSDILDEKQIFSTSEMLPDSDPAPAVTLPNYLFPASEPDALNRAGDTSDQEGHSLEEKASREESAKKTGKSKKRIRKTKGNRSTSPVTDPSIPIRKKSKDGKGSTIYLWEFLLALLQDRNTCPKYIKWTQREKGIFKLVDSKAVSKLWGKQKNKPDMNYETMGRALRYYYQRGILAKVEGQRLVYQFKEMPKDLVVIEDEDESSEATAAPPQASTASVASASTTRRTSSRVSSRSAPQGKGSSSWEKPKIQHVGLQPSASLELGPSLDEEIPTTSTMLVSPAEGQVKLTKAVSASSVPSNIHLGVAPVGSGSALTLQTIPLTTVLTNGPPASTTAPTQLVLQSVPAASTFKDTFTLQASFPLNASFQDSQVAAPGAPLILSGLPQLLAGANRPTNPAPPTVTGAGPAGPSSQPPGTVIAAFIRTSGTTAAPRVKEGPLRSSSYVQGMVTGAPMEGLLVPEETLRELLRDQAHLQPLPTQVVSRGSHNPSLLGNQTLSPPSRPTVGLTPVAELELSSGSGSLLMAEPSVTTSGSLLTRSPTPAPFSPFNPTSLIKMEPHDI
# Only a part is listed here, and it is no random draw. For part of these data: At the low end of the ranking, values are background and their order means little.
# Key:
# Assay in all cases: DAPPL (digital affinity profiling via proximity ligation, sequencing)
# Details in all cases: 10 mM Tris-HCl pH 7.5, 50 mM NaCl, 1 mM DTT, 4% glycerol, room temperature, 30 min; GST-TFs on glutathione beads, 16-mer random dsDNA library, 0.1% …; high values mean tight binding; double strand, one strand shown; scale: fold enrichment (6-mer frequency, TF over GST control)
# FLI1 = target: T1, FLI1 (UniProt Q01543)
# T1 sequence: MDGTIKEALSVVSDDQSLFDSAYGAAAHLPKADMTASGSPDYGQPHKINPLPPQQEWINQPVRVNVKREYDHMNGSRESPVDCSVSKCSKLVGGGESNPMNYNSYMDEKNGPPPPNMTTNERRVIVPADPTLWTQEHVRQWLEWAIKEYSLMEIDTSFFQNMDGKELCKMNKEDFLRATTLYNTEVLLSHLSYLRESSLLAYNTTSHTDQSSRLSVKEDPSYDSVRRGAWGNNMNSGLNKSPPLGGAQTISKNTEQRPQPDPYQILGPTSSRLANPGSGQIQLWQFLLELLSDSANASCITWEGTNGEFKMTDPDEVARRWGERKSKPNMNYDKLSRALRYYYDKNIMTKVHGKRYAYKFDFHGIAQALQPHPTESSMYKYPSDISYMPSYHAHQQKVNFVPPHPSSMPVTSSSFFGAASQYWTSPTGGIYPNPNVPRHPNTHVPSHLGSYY
# EHF = target: T2, EHF (UniProt Q9NZC4)
# T2 sequence: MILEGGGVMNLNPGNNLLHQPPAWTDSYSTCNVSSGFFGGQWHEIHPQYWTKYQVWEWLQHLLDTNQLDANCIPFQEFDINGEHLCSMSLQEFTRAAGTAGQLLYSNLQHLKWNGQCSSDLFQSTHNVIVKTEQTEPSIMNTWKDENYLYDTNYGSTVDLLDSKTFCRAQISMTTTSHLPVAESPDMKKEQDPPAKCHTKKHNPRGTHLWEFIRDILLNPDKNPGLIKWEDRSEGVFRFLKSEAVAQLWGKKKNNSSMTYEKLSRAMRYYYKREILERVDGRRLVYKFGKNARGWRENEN
# ETV5 = ETV5 (UniProt P41161)
# ETV2 = target: T3, ETV2 (UniProt O00321)
# T3 sequence: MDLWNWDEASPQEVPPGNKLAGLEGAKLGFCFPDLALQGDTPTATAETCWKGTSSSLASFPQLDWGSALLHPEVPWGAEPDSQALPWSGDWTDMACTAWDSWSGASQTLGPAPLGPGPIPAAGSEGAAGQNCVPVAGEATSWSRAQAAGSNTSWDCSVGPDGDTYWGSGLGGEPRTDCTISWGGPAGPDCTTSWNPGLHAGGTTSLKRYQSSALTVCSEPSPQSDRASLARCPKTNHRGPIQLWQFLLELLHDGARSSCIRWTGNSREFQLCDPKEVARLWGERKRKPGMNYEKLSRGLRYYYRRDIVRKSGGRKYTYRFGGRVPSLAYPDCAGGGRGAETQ
# ETV3L = target: T4, ETV3L (UniProt Q6ZN32)
# T4 sequence: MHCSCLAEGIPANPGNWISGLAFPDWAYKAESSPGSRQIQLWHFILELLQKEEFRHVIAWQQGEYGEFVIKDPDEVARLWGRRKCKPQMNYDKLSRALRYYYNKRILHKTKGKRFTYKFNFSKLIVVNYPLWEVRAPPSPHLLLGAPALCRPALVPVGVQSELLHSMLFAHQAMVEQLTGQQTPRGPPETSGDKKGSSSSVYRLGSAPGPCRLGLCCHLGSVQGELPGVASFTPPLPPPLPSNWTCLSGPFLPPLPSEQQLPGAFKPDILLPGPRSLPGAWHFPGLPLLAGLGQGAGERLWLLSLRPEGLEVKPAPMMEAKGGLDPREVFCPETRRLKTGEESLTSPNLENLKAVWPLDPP
# SPIB = SPIB (UniProt Q01892)
# ELF4 = ELF4 (UniProt Q99607)
Sequence,binding signal (FLI1),binding signal (EHF),binding signal (ETV5),binding signal (ETV2),binding signal (ETV3L),binding signal (SPIB),binding signal (ELF4)
GCGAAT,0.944,1.17,0.935,0.932,1.06,–,–
GCTCGA,1.22,–,1.22,1.07,–,–,–
GCCGAA,0.947,–,0.979,0.871,0.961,–,–
GACCGG,0.949,–,1.12,0.957,1.08,–,–
GCTTAA,0.936,0.992,0.968,0.83,1.05,–,–
CGTTGC,1.09,–,0.978,1.12,–,–,–
ATATAA,1.15,–,1.15,1.24,–,–,–
TTGGTC,1.16,–,1.1,0.984,1.08,–,–
TTGCGA,1.19,–,1.15,1.1,–,–,–
CTTACT,1.38,–,1.28,1.39,–,–,–
CGTTTA,1.08,–,0.99,1.03,–,–,–
CACCCT,1.21,–,1.19,1.26,–,–,–
TACACT,1.41,–,1.5,1.46,–,–,–
GCAGCA,0.918,0.972,0.992,1.01,0.943,–,–
CTTCTT,1.44,–,1.59,1.53,–,–,–
GGCTAC,1.17,–,1.22,0.929,–,–,–
TCCACT,1.47,–,1.49,1.48,1.49,–,–
CTGACA,1.19,–,1.22,1.2,–,–,–
CTAGAT,1.13,1.17,1.19,1.17,1.34,–,–
AGTCCC,0.957,–,1.04,0.93,–,–,–
AGCAAT,1.07,–,1.14,1.14,–,–,–
CATCCT,1.68,–,1.63,1.63,–,–,–

Sequence,binding signal (FLI1),binding signal (EHF),binding signal (ETV5),binding signal (ETV2),binding signal (ETV3L),binding signal (SPIB),binding signal (ELF4)
TGCAGA,0.983,0.937,0.966,0.958,0.905,–,–
CTATTG,1.33,–,1.31,1.31,–,–,–
GTATGA,0.967,0.935,0.977,0.853,0.979,–,–
TCCGAT,1.32,–,1.3,1.15,1.22,–,–
GTGGCC,0.99,0.971,0.864,0.989,0.977,–,–
ATCGCT,1.09,–,1.07,0.924,–,–,–
CAAATC,1.06,–,1.14,1.1,–,–,–
TAGTGG,1.18,–,1.11,1.15,–,–,–
CCGCGG,0.995,0.938,0.815,0.756,0.989,–,–
GCGTTT,1.1,–,1.09,1.11,1.11,–,–
AATCCG,1.53,–,1.65,–,–,1.68,1.46
TTTCGC,1.11,–,1.08,1.39,–,–,–
ATATCT,1.25,–,1.1,1.3,–,–,–
TTTAAT,1.4,–,1.32,1.06,–,–,–
CATATG,0.886,–,0.987,0.966,–,–,–
GCCGCT,1.09,–,0.991,0.938,–,–,–
TAGCGC,0.908,0.956,0.881,0.982,0.968,0.972,–
CAGACT,0.95,1.05,0.991,1.04,0.984,0.976,–
CACCGC,0.966,1.08,0.985,0.877,0.985,0.981,–
TCCTAG,1.23,1.22,1.33,1.23,–,–,–
GTGTCC,1.03,1.08,1.16,1.19,0.951,1.13,–
GCAACA,0.986,0.984,0.995,1.03,0.963,0.991,–

Sequence,binding signal (FLI1),binding signal (EHF),binding signal (ETV5),binding signal (ETV2),binding signal (ETV3L),binding signal (SPIB),binding signal (ELF4)
TAGCGT,0.929,–,1.03,0.97,0.919,0.922,–
AATGTG,1.04,0.954,0.988,0.969,0.99,1,–
CCTTCG,1.31,–,1.3,1.39,–,1.41,–
TTCAAC,1.3,–,1.29,1.31,–,1.38,–
GCGCCG,0.989,0.953,0.954,0.914,0.976,0.974,–
TGTCTT,1.29,–,1.24,1.18,–,1.26,–
CCCTGC,1.11,–,1.18,1.05,–,1.16,–
CAATGA,0.95,0.963,0.962,0.966,0.92,0.929,–
GCCAAC,0.993,0.932,0.897,0.893,0.97,0.949,–
GCATAC,0.987,1.01,0.928,0.981,0.965,0.882,–
TGAAAG,0.973,0.942,0.925,0.989,–,–,–
TATTGC,1.39,–,1.34,1.22,–,1.37,–
TCCGCA,2.2,–,2.24,–,2.08,–,–
TCGGCT,0.907,–,0.939,0.948,0.85,0.948,–
AACCCT,1.31,–,1.31,–,1.24,–,–
CAGCAT,1.04,0.955,1.04,0.967,–,0.98,–
ATGCGA,1.18,1.23,1.17,1.34,–,–,–
ACATGA,0.991,0.972,0.944,0.964,0.853,0.867,–
CCAGCT,0.988,1.06,0.99,0.986,–,0.959,–
CGCCAA,1.03,–,1.02,–,0.996,–,–
TTTGTA,1.64,–,1.64,–,1.69,–,–

# Individual results from the results shown.
# Under binding signal (FLI1), GCGCCG is entered as 0.989
# Under binding signal (SPIB), CCCTGC is entered as 1.16
# Under binding signal (ETV5), CAGCAT is entered as 1.04
# Under binding signal (FLI1), AACCCT is entered as 1.31
